Our source for the isolated mass values is patent EP0606463B1 (The Administrators of The Tulane Educational Fund, priority 1992, dated 1994).

The data set is described as follows: general procedure: Boc solid-phase peptide synthesis; benzhydrylamine-polystyrene resin; diisopropylcarbodiimide. Conditions: whole synthesis, scale 0.5 mmole.

D-Nal-Cys-Tyr-D-Trp-Lys-Val-Cys-Nal-NH2 had an isolated mass of 151 mg.
